We go through 58 compounds from PubChem BioAssay AID2685 (National Center for Advancing Translational Sciences (NCATS), 2010).

The other results are listed elsewhere or left out. The main result of the screen is listed elsewhere. These columns were measured beside it and carry no call. The list favours compounds with an active or inconclusive main result. Potencies come from curve fits of mixed quality, noted in brackets.

The experiment is described as follows: qHTS Assay for Lipid Storage Modulators in Drosophila S3 Cells.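 For cell number change: cells counted by Cell Tracker Red CMTPX staining in the red channel.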 Particulars: BODIPY lipid droplet fluorescence, 18-24 h; for cell number change: measured here: cell count max response, cells fed with added oleic acid. The gist of the method:
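Drosophila S3 cells loaded with oleic acid (400 uM, as added) and compounds at several concentrations; lipid droplets imaged by 488-nm laser-scanning cytometry, 500–530 nm intensity and object ratio to cell channel. Percent activity normalized to 20 uM Triacsin C.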
On the technique in general: Quantitative high-throughput screening tests each substance at several concentrations.

Setting [1] is: measured here: lipid fluorescence (Fed channel) AC50, cells fed with added oleic acid.
[2] abbreviates: measured here: cell number channel AC50, cells fed with added oleic acid.

For orientation: AC50 means the concentration giving half of the maximal activity seen. Consider `N#CCCN1CCN(C(=S)c2ccc(-c3ccc(Cl)c(Cl)c3)o2)CC1`, for which the cell number change is -2.29%. The AC50 under setting [1] is 1.03 µM [rising, full curve, poor fit].
For `N#Cc1nc(-c2cccs2)oc1N1CCN(Cc2ccccc2)CC1`, the cell number change was -15.9%. In addition, the half-maximal activity concentration (AC50) under setting [1] was 13 µM [rising, partial curve].
In the case of `CCCCCOC(=O)C1=C(C)N(C)C(=O)NC1c1cc(Br)c(O)c(OC)c1` (stereo not given), the cell number change was found to be 210%. Besides, the half-maximal activity concentration (AC50) under setting [2] is 29.1 µM [rising, single point].
For the compound `CCOC(=O)c1ccc(NC(=O)CSc2nnc(CNC(=O)c3ccco3)o2)cc1`, under setting [1], the AC50 was 11.6 µM [falling, single point].
In the case of `Cc1nc(-c2ccncc2)nc(NCCNc2ccc(C(F)(F)F)cn2)c1Cl`, the cell number change was -8.26%.
Consider `COc1cccc(NC(=O)C2CCN(Cc3cnn(-c4ccccc4)c3-n3cccc3)CC2)c1`, for which the cell number change was -46.6%. For the same compound, the half-maximal activity concentration (AC50) under setting [2] is 23.1 µM [falling, single point]. The AC50 under setting [1] is 18.4 µM [falling, single point].
With `O=C(NCCCN1CCOCC1)c1cnccn1`, the cell number change came to 18.2%. Moreover, under setting [1], the concentration at half-maximal activity (AC50) was 0.13 µM [rising, single point].
Consider `NC(=O)C(c1ccccc1)C1CCCCC1` (stereo not given), for which the cell number change came out at 6.64%. Also, under setting [1], the concentration at half-maximal activity (AC50) was 25.9 µM [falling, single point].
Turning to `NC1=NCc2ccccc21`, the AC50 under setting [1] was 9.2 µM [falling, partial curve].
`N#CC(C#N)=C1C=CC=CN1/C(=C\c1ccco1)C(=O)c1ccc(Cl)cc1`: the cell number change was -50.8%. The AC50 under setting [2] is 2.31 µM [falling, full curve]. The AC50 under setting [1] is 2.59 µM [falling, full curve].
In the case of `CCOc1ccc(C2C=C(c3ccc(F)cc3)Nc3ncnn32)cc1` (stereo not given), the AC50 reads like this: under setting [2], 1.3 µM [rising, full curve]; under setting [1], 5.17 µM [rising, single point].
For the compound `CC1CN(C(=O)c2ccc(CNS(=O)(=O)c3cccc(C(F)(F)F)c3)cc2)CC(C)O1` (stereo not given), the cell number change is -26.7%. Moreover, the AC50 under setting [1] is 25.9 µM [falling, single point].
For the compound `CCOc1ccc(CCNC(=O)COC(=O)Cc2ccc(OC)c(OC)c2)cc1OCC`, the cell number change is 20.9%.
Take `NS(=O)(=O)c1ccc(CCNC/C=C/c2ccccc2)cc1`: the cell number change is -10.6%. Under setting [1], the concentration at half-maximal activity (AC50) was 5.17 µM [rising, full curve, poor fit].
For the compound `O=C1OC(CN2CCOCC2)CN1N=Cc1ccc([N+](=O)[O-])o1` (stereo not given), the cell number change was -8.43%. Also, the AC50 under setting [1] is 25.9 µM [falling, single point].
Regarding `COc1ccc(C(=O)Nc2ccccc2)cc1NC(=O)c1ccc([N+](=O)[O-])cc1`, the cell number change was -14.2%. Under setting [1], the AC50 was 29.1 µM [falling, single point].
`CCCCCOc1ccc(C(=O)CCN2CCOCC2)cc1`: the cell number change was -14.7%. For the same compound, under setting [1], the AC50 was 6.51 µM [falling, full curve].
Regarding `CCc1sc(C(=O)Nc2cccc(-n3cnnn3)c2)cc1C`, the cell number change was -3.17%. In addition, the AC50 under setting [1] is 0.461 µM [rising, full curve, poor fit].
As to `CN(Cc1ccco1)C(=O)c1cc2c(s1)-c1ccc(Cl)cc1S(=O)(=O)C2`, the cell number change is -10%. Further, the AC50 under setting [1] was 6.51 µM [rising, single point].
Take `O=c1c2ccccc2oc2ccc(NCCCn3ccnc3)cc12`: the cell number change is -3.29%. Further, the AC50 under setting [1] was 29.1 µM [rising, single point].
For `CCOc1ccccc1Nc1nc(-c2sc(NC(=O)c3ccccc3)nc2C)cs1`, the cell number change was -1.26%. For the same compound, the AC50 under setting [2] was 6.51 µM [rising, single point]. Further, under setting [1], the AC50 was 0.231 µM [rising, single point].
For the compound `O=C(Cc1cccs1)NCc1cccc(Cl)c1`, the cell number change was -4.96%. Further, the half-maximal activity concentration (AC50) under setting [1] was 0.13 µM [falling, full curve, poor fit].
On to `COc1ccc(NC(=O)CNC(=O)Cn2ccc3ccccc3c2=O)c(OC)c1`, for which the cell number change is 14.9%. The AC50 under setting [1] was 6.51 µM [rising, single point].
Regarding `COCC(=O)NCCc1nc2ccccc2[nH]1`, the cell number change was -20.8%. In addition, the concentration at half-maximal activity (AC50) under setting [2] is 3.26 µM [falling, single point]. In addition, under setting [1], the half-maximal activity concentration (AC50) was 14.6 µM [falling, partial curve].
For the compound `COc1ccccc1Cn1nnc2c(=O)[nH]c(C3CCN(C(=O)c4ccc(C)cc4)CC3)nc21`, the cell number change was -6.93%. For the same compound, the AC50 under setting [1] was 20.6 µM [falling, partial curve].
As to `CC(C)c1ccc(NC2CCCN(C(=O)c3n[nH]c4c3CCC4)C2)cc1` (stereo not given), the concentration at half-maximal activity (AC50) under setting [1] is 1.84 µM [falling, partial curve].
On to `O=[N+]([O-])c1cccc(-c2nc3ccccc3s/c2=N/O)c1`, for which the cell number change was -52.1%. The AC50 under setting [2] is 18.4 µM [falling, partial curve]. Besides, the concentration at half-maximal activity (AC50) under setting [1] is 23.1 µM [falling, partial curve].
As to `CCOC(=O)Cn1c(=N)n(Cc2ccccc2F)c2ccccc21`, the concentration at half-maximal activity (AC50) under setting [1] is 23.1 µM [falling, partial curve].
As to `COc1ccc(NC(=O)Nc2ccc(Cc3ccncc3)cc2)c(OC)c1`, the cell number change came to 35.8%. Besides, the AC50 under setting [2] was 6.51 µM [rising, single point]. The AC50 under setting [1] was 5.17 µM [rising, full curve].
With `CCC(C)NC(=O)c1ccc(N2CC3CC(C2)c2cccc(=O)n2C3)c(NC(=O)c2ccc(Br)o2)c1` (stereo not given), the cell number change was 6.05%. Further, the AC50 under setting [1] was 1.46 µM [falling, partial curve].
On to `CCOC(=O)CSc1nc(CC)nc2ccccc12`, for which the cell number change is -32.3%. Further, the half-maximal activity concentration (AC50) under setting [2] is 16.4 µM [falling, single point]. Under setting [1], the AC50 was 0.092 µM [falling, full curve, poor fit].
Take `CC(C)(C)C1CCc2onc(C(=O)Nc3cccc(O)c3)c2C1` (stereo not given): the cell number change was -47%. Besides, the AC50 under setting [2] is 23.1 µM [falling, partial curve, poor fit].
With `NC1=NC2CS(=O)(=O)CC2S1` (stereo not given), the cell number change was 9.02%. In addition, under setting [1], the AC50 was 1.03 µM [rising, partial curve].
Consider `O=[N+]([O-])c1ncccc1Oc1nc(-c2cccnc2)nc2ccccc12`, for which the cell number change is 70.9%. For the same compound, under setting [2], the AC50 is 9.2 µM [rising, partial curve].
Consider `c1ccc(Cn2ccnc2SCc2nnc(-c3ccccc3)o2)cc1`, for which the cell number change was 6.55%. Besides, the half-maximal activity concentration (AC50) under setting [2] was 0.651 µM [rising, full curve, poor fit].
In the case of `Cn1c(Cc2ccccc2)n[nH]c1=S`, the cell number change is -66.7%. In addition, the half-maximal activity concentration (AC50) under setting [2] is 0.082 µM [falling, full curve, poor fit].
`O=S(=O)(NC1CCCC1)c1cccc(S(=O)(=O)N2CCC(n3nnc4ccccc43)CC2)c1`: the cell number change is -16.9%. In addition, the AC50 under setting [1] was 29.1 µM [falling, single point].
With `CC1CCN(S(=O)(=O)c2ccc(C(=O)NCc3cccnc3)cc2)CC1`, the half-maximal activity concentration (AC50) under setting [2] was 0.092 µM [rising, single point].
For the compound `CN(Cc1ccccc1)S(=O)(=O)c1ccc2[nH]cc(C(=O)NCC3CCCO3)c(=O)c2c1` (stereo not given), the cell number change was -22.7%. Also, the AC50 under setting [1] is 10.3 µM [falling, single point].
For `Cc1cccc(NC(=O)c2cccc(NC(=O)c3ccccc3)c2)n1`, the cell number change worked out at 3.72%. Further, the AC50 under setting [1] is 29.1 µM [falling, single point].
As to `Cc1ccc2nsnc2c1S(=O)(=O)N(Cc1cc2cccc(C)c2[nH]c1=O)CC1CCCO1` (stereo not given), the cell number change came to 120%. Also, under setting [2], the AC50 is 23.1 µM [rising, single point].
As to `CC(C)NC(=O)CSc1nncn1-c1ccccc1`, under setting [1], the AC50 was 0.082 µM [rising, full curve, poor fit].
Still for that read-out and setting: in the case of `CCOc1ccc(-c2cc(C(=O)NCCCn3ccnc3)c3ccccc3n2)cc1` it was 0.13 µM [rising, full curve, poor fit].
Consider `O=C(CSc1nnc(CNC(=O)c2cccc(C(F)(F)F)c2)o1)NC1CCCCC1`, for which the cell number change was -28.7%. For the same compound, the AC50 under setting [1] is 6.51 µM [rising, single point].
Take `COc1ccc(-c2c(C#N)c(N)nc3sc(C(=O)c4ccc(C)cc4)c(N)c23)cc1`: the cell number change stood at 2.67%. Besides, the half-maximal activity concentration (AC50) under setting [1] is 29.1 µM [falling, partial curve, poor fit].
As to `COc1ccc(C)c2sc(N(CCCN(C)C)C(=O)CS(=O)(=O)c3ccc(F)cc3)nc12`, the cell number change is 6.81%. Under setting [2], the AC50 was 1.46 µM [falling, partial curve]. Moreover, the AC50 under setting [1] was 2.06 µM [falling, partial curve].
In the case of `C=CCOCCn1[nH]c2ccccc2c1=O`, the cell number change was found to be 33.6%. Also, the AC50 under setting [2] was 7.31 µM [rising, partial curve, poor fit]. For the same compound, the half-maximal activity concentration (AC50) under setting [1] is 5.8 µM [rising, full curve].
As to `O=C(N/N=C\c1cn[nH]c1-c1ccccc1)c1ccc([N+](=O)[O-])cc1`, the cell number change came to 11.6%. Besides, the concentration at half-maximal activity (AC50) under setting [1] is 29.1 µM [falling, single point].
For `O=C1NN(c2ccccc2)C(=O)/C1=C\c1ccccc1`, the cell number change is -21.2%.
Regarding `COc1cccc(CNC(=O)CCNC(=O)C2CCN(S(=O)(=O)c3ccccc3)CC2)c1`, the cell number change is 27.8%. Also, under setting [1], the half-maximal activity concentration (AC50) was 0.184 µM [rising, full curve, poor fit].
Consider `CCOc1ccc(-n2c(Cc3cc(=O)[nH]c(=O)[nH]3)nnc2SCC(=O)Nc2nnc(C)s2)cc1`, for which the cell number change is -46%. Moreover, the AC50 under setting [2] was 0.259 µM [falling, full curve, poor fit]. In addition, the half-maximal activity concentration (AC50) under setting [1] is 0.146 µM [falling, single point].
For the compound `Cc1ccc(-c2csc3nc[nH]c(=O)c23)cc1`, the cell number change turned out to be 20.1%. Moreover, under setting [1], the concentration at half-maximal activity (AC50) was 0.651 µM [falling, partial curve, poor fit].
With `CC(CCc1ccccc1)NC(=O)COC(=O)c1cccn1C` (stereo not given), the cell number change was -18.7%. Moreover, under setting [1], the concentration at half-maximal activity (AC50) was 4.11 µM [falling, full curve].
As for `CCOC(=O)N1CCN(Cc2oc(CO)cc(=O)c2O)CC1`, the cell number change amounted to 0.429%. Moreover, the concentration at half-maximal activity (AC50) under setting [1] is 0.82 µM [falling, full curve].
As for `Cc1ccc(N2CC(C(=O)NCCS(=O)(=O)N3CCN(c4ccc(F)cc4)CC3)CC2=O)cc1` (stereo not given), the concentration at half-maximal activity (AC50) under setting [1] is 1.46 µM [falling, partial curve].
As for `Nc1ccn([C@H]2CS[C@@H](CO)O2)c(=O)n1`, the cell number change is -38.2%. The AC50 under setting [2] was 25.9 µM [falling, single point]. Moreover, the AC50 under setting [1] was 1.16 µM [rising, single point].
With `Cc1ccc(Oc2ccc(S(=O)(=O)N3CCOCC3)cc2C(N)=O)c(-n2nc3ccccc3n2)c1`, the cell number change was -28.4%. In addition, the AC50 under setting [1] is 29.1 µM [falling, single point].
Consider `N#CCCNC(=O)CCN1CCOCC1`, for which the cell number change stood at 8.81%.
